Source: paper PMC4447949, “Structures of the Ets Protein DNA-binding Domains of Transcription Factors Etv1, Etv4, Etv5, and Fev” (The Journal of Biological Chemistry, 2015)
No constants are given. Whether binding was seen depends on the method and setting. Each block holds one binder with its values, some of them ahead of it.

Columns and labels:
Experiment in all cases: condition: only purified under reducing conditions (0.5 mM TCEP); SEC; protein purified under reducing conditions (0.5 mM TCEP); Superdex S75 or 200, 20 mM HEPES pH 7.5, 500 mM NaCl, 5% glycerol; both purified
[1] = biological target: Etv4 Ets domain (amino acids 338-470) (human) (UniProt P43268)
[2] = biological target: Etv1 wild-type Ets domain (amino acids 326-429) (human) (UniProt P50549)
[3] = biological target: Etv5 Ets domain (amino acids 365-462) (human) (UniProt P41161)

binding [1]: no binding
B1: Etv4 Ets domain (amino acids 338-470) (domain or fragment, human, UniProt P43268 338-470, looked up)
chain: RGALQLWQFLVALLDDPTNAHFIAWTGRGMEFKLIEPEEVARLWGIQKNRPAMNYDKLSRSLRYYYEKGIMQKVAGERYVYKFVCEPEALFSLAFPDNQRPALKAEFDRPVSEEDTVPLSHLDESPAYLPELA
notes: Etv4 (PEA3), Ets domain construct, amino acids 338-470; TEV cleavage leaves SM before the insert; The limits are those told for the crystallised construct; also called PEA3; Etv4 WT; source: E. coli BL21 (DE3) Rosetta-R3, purified with TCEP (Ni-IDA, TEV cleavage, SEC); E. coli Rosetta-gami 2, purified without TCEP; not shown: His6, N-terminal, cleaved

binding [2]: no binding
B2: Etv1 wild-type Ets domain (amino acids 326-429) (domain or fragment, human, UniProt P50549 326-429, looked up)
chain: GPTYQRRGSLQLWQFLVALLDDPSNSHFIAWTGRGMEFKLIEPEEVARRWGIQKNRPAMNYDKLSRSLRYYYEKGIMQKVAGERYVYKFVCDPEALFSMAFPDN
notes: Same limits as the crystallised Y329S-P427S construct (PDB 4AVP, 4BNC); TEV cleavage leaves SM before the insert; From Rosetta-gami 2 under nonreducing conditions it is a disulfide-linked dimer; also called WT; WT dimer; source: E. coli BL21 (DE3) Rosetta-R3, purified with TCEP (Ni-IDA, TEV cleavage, SEC); E. coli Rosetta-gami 2, purified without TCEP; not shown: His6, N-terminal, cleaved

binding [3]: no binding
B3: Etv5 Ets domain (amino acids 365-462) (domain or fragment, human, UniProt P41161 365-462, looked up)
chain: RGSLQLWQFLVTLLDDPANAHFIAWTGRGMEFKLIEPEEVARRWGIQKNRPAMNYDKLSRSLRYYYEKGIMQKVAGERYVYKFVCDPDALFSMAFPDN
notes: Etv5 (ERM), Ets domain construct, amino acids 365-462; TEV cleavage leaves SM before the insert; The limits are those told for the crystallisation construct; also called ERM; Etv5 WT; source: E. coli BL21 (DE3) Rosetta-R3, purified with TCEP (Ni-IDA, TEV cleavage, SEC); E. coli Rosetta-gami 2, purified without TCEP; not shown: His6, N-terminal, cleaved
